Measured values taken from PubChem BioAssay AID330 (DTP/NCI, 2004).
The list is a part of this screen's results and no random one: it gathers tests that were run many times, whatever their T/C, doses with no T/C, and many T/C values between a quarter and a half above the control. Further doses and runs are listed elsewhere. T/C: endpoint of the treated group in % of that of the vehicle group. Some entries give survivors of the animals treated and no T/C: the source holds a T/C of zero for them, seemingly a mark for toxic or unscored doses. Some survivor counts are full or nearly so, which does not show that the dose was tolerated: survival well below the control is almost never listed, so the zero probably covers shortened survival too. Counts of survivors are from the toxicity check (mostly the fifth day) where no day follows; animals may have died later. Schedule codes are those of the source, read here as Q, the interval in days (D) or hours (H), X, the number of doses. Some doses were run more than once; the values are given in rising order. Some structures stand for samples that the source files as different forms (salt, stereo form or complex); doses refer to the form tested. For survival time, this PubChem deposit counts one and a half times the control or more as active, and values a quarter to a half above the control carry no call in these data; other NCI protocols may use other cut-offs. Marks such as (2×) give the number of equal values in this list. Some T/C values carry the count of animals alive at the toxicity check (mostly the fifth day); where none is given, no animal had died by that day.

Tested on: P388 leukemia ip, CD2F1 mice, survival T/C
Assay: NCI In Vivo Anticancer Drug Screen. Data for tumor model P388 Leukemia (intraperitoneal) in CD2F1 (CDF1) mice
Details: T/C endpoint: median survival time, higher T/C = longer survival
[1] = dose: 200.0 mg/kg/injection, schedule: Q01DX005 (ip), vehicle: Klucel (hydroxypropylcellulose) (HPC)
[2] = dose: 100.0 mg/kg/injection, schedule: Q01DX005 (ip), vehicle: saline with Tween-80
[3] = dose: 200.0 mg/kg/injection, schedule: Q01DX005 (ip), vehicle: saline with Tween-80
[4] = dose: 240.0 mg/kg/injection, schedule: Q01DX005 (ip), vehicle: saline with Tween-80
[5] = dose: 12.5 mg/kg/injection, schedule: Q01DX009 (ip), vehicle: saline
[6] = dose: 200.0 mg/kg/injection, schedule: Q01DX009 (ip), vehicle: saline

## CCC(C)Sc1nc2ccc(NC(=O)/C=C/C(=O)O)cc2s1 (centres undefined)
dose: 400.0 mg/kg/injection, schedule: Q04DX003 (ip), vehicle: Klucel (hydroxypropylcellulose) (HPC)
  survivor count: 0 of 6

## Clc1ccc2ccc3cccnc3c2n1
dose: 240.0 mg/kg/injection, schedule: Q01DX005 (ip), vehicle: saline
  survivor count: 0 of 6

## CNCCC(Oc1ccccc1OC)c1ccccc1 (centres undefined)
dose: 100.0 mg/kg/injection, schedule: Q04DX002 (ip), vehicle: saline with Tween-80
  survivor count: 0 of 6
dose: 100.0 mg/kg/injection, schedule: Q04DX002 (ip), vehicle: saline
  survivor count: 1 of 6 and 2 of 6
dose: 200.0 mg/kg/injection, schedule: Q04DX002 (ip), vehicle: saline with Tween-80
  survivor count: 0 of 6
dose: 200.0 mg/kg/injection, schedule: Q04DX002 (ip), vehicle: saline
  survivor count: 0 of 6
dose: 400.0 mg/kg/injection, schedule: Q04DX002 (ip), vehicle: saline
  survivor count: 0 of 6

## CN=C(NC)c1ccc(NC(=O)c2ccc(C(=O)Nc3ccc(C(=NC)NC)cc3)c([N+](=O)[O-])c2)cc1
dose: 6.25 mg/kg/injection, schedule: Q01DX005 (ip), vehicle: Klucel (hydroxypropylcellulose) (HPC)
  T/C: 127 and 140 % of control
dose: 12.5 mg/kg/injection, schedule: Q01DX005 (ip), vehicle: Klucel (hydroxypropylcellulose) (HPC)
  survivor count: 1 of 6 and 2 of 6
dose: 25.0 mg/kg/injection, schedule: Q01DX005 (ip), vehicle: Klucel (hydroxypropylcellulose) (HPC)
  survivor count: 0 of 6
dose: 50.0 mg/kg/injection, schedule: Q01DX005 (ip), vehicle: Klucel (hydroxypropylcellulose) (HPC)
  survivor count: 0 of 6
dose: 100.0 mg/kg/injection, schedule: Q01DX005 (ip), vehicle: Klucel (hydroxypropylcellulose) (HPC)
  survivor count: 0 of 6
[1]
  survivor count: 0 of 6

## CN(C)C1CC/C=C/CC/C=C/CC[C@H]1O (mixture of isomers)
[2]
  survivor count: 2 of 5
[3]
  survivor count: 0 of 5

## C=C(C)C(=NC(C)C)Nc1ccccc1Cl
[1]
  survivor count: 1 of 6

## COc1ccc(NC(=O)Oc2ccc3c(C)cc(=O)oc3c2)c(OC)c1 (tested in a mixture with another compound)
[4]
  T/C: 130 % of control (2×)
dose: 480.0 mg/kg/injection, schedule: Q01DX005 (ip), vehicle: saline with Tween-80
  T/C: 126 % of control

## CC1OC2CC(=O)OC2C2=C1C(=O)c1cc(-c3cc(O)c4c(c3)C(=O)C3=C(C4=O)C4OC(=O)CC4OC3C)cc(O)c1C2=O (centres undefined)
dose: 7.6 mg/kg/injection, schedule: Q01DX005 (ip), vehicle: DMSO
  survivor count: 3 of 6

## COc1cccc2c1C(=O)c1c(O)c3c(c(O)c1C2=O)C[C@@](O)(C(C)=O)C[C@@H]3OC(=O)CCN
dose: 5.56 mg/kg/injection, schedule: Q01DX009 (ip), vehicle: water
  T/C: 126 % of control
dose: 6.25 mg/kg/injection, schedule: Q01DX009 (ip), vehicle: water
  T/C: 126 % of control
dose: 12.5 mg/kg/injection, schedule: Q01DX009 (ip), vehicle: water
  T/C: 126 % of control

## O=P(N1CC=CCC1)(N1CC1)N1CC1
[5]
  T/C: 131 % of control
dose: 15.0 mg/kg/injection, schedule: Q04DX003 (ip), vehicle: saline
  T/C: 145 % of control
dose: 18.7 mg/kg/injection, schedule: Q01DX009 (ip), vehicle: saline
  survivor count: 6 of 6

## CC(C)=CCc1c(C)cc2cc3c(c(O)c2c1O)C(O)=CC(=O)C3(CC=C(C)C)C/C=C(\C)CO (centres undefined)
[1]
  survivor count: 1 of 6

## COC(=O)c1nc(N)nc(C(=O)OC)c1C(=O)C(C)C
[4]
  survivor count: 0 of 6

## C=CCn1/c(=N\NC(=O)c2ccncc2)sc2ccccc21
dose: 50.0 mg/kg/injection, schedule: Q01DX009 (ip), vehicle: Klucel (hydroxypropylcellulose) (HPC)
  survivor count: 6 of 6
dose: 100.0 mg/kg/injection, schedule: Q01DX009 (ip), vehicle: Klucel (hydroxypropylcellulose) (HPC)
  survivor count: 6 of 6
dose: 200.0 mg/kg/injection, schedule: Q01DX009 (ip), vehicle: Klucel (hydroxypropylcellulose) (HPC)
  survivor count: 6 of 6

## C[Si](C)(C)O/C=C1/CCOC1=O
[6]
  T/C: 125 % of control

## CCOC(=O)C(=O)C(C#N)c1ccccc1CC#N (centres undefined)
[3]
  survivor count: 0 of 6

## COC(=O)CCC1=C(C)c2cc3cc(C)c(cc4cc(C)c(cc5nc(cc1n2)C(CCC(=O)OC)=C5C)[nH]4)[nH]3
dose: 6.25 mg/kg/injection, schedule: Q01DX005 (ip), vehicle: saline with Tween-80
  survivor count: 5 of 5
dose: 12.5 mg/kg/injection, schedule: Q01DX005 (ip), vehicle: saline with Tween-80
  survivor count: 5 of 5
dose: 50.0 mg/kg/injection, schedule: Q01DX005 (ip), vehicle: saline with Tween-80
  survivor count: 0 of 5
[2]
  survivor count: 0 of 5
[3]
  survivor count: 0 of 5

## Nc1ccc2ccc(N)nc2c1
dose: 100.0 mg/kg/injection, schedule: Q01DX009 (ip), vehicle: acid diluted with saline
  survivor count: 3 of 6
dose: 200.0 mg/kg/injection, schedule: Q01DX009 (ip), vehicle: acid diluted with saline
  survivor count: 0 of 6

## CCN(CC)CCOC(=O)c1ccc(NC(=S)Nc2ccccc2)cc1
[3]
  survivor count: 3 of 5

## [N-]=[N+]=NC(=O)Nc1ccccc1F
dose: 15.0 mg/kg/injection, schedule: Q01DX005 (ip), vehicle: Klucel (hydroxypropylcellulose) (HPC)
  survivor count: 1 of 6
dose: 30.0 mg/kg/injection, schedule: Q01DX005 (ip), vehicle: Klucel (hydroxypropylcellulose) (HPC)
  survivor count: 0 of 6
dose: 60.0 mg/kg/injection, schedule: Q01DX005 (ip), vehicle: Klucel (hydroxypropylcellulose) (HPC)
  survivor count: 0 of 6
dose: 120.0 mg/kg/injection, schedule: Q01DX005 (ip), vehicle: Klucel (hydroxypropylcellulose) (HPC)
  survivor count: 0 of 6
dose: 240.0 mg/kg/injection, schedule: Q01DX005 (ip), vehicle: Klucel (hydroxypropylcellulose) (HPC)
  survivor count: 0 of 6

## COc1cc(-c2ccc(Nc3ccccc3C(=O)O)c(OC)c2)ccc1N
dose: 300.0 mg/kg/injection, schedule: Q04DX003 (ip), vehicle: saline with Tween-80
  survivor count: 6 of 6

## O=NN(CCCl)C(=O)Nc1c[nH]c2ccccc12
dose: 25.0 mg/kg/injection, schedule: Q01DX009 (ip), vehicle: Klucel (hydroxypropylcellulose) (HPC)
  T/C: 135 % of control

## CC1(C)N=C(N)N=C(N)N1c1ccc(OCCCCNC(=O)c2ccc(S(=O)(=O)F)cc2)c(Cl)c1
dose: 12.5 mg/kg/injection, schedule: Q01DX009 (ip), vehicle: saline with Tween-80
  T/C: 128 % of control
[5]
  T/C: 149 % of control
dose: 50.0 mg/kg/injection, schedule: Q01DX009 (ip), vehicle: saline with Tween-80
  T/C: 146 % of control
dose: 100.0 mg/kg/injection, schedule: Q01DX009 (ip), vehicle: saline with Tween-80
  survivor count: 6 of 6
dose: 100.0 mg/kg/injection, schedule: Q01DX009 (ip), vehicle: saline
  T/C: 149 % of control [5 of 6 alive]
[6]
  survivor count: 0 of 6

## Cc1ccc2c3nc4ccccc4c-3csc2c1
dose: 40.0 mg/kg/injection, schedule: Q01DX009 (ip), vehicle: saline
  survivor count: 6 of 6
